Experimental data: the supplement of paper PMC10849652
The list shows a part of the results.

The chains behind the UniProt entries cited, without tags or fusion partners. Where a name states a change or a piece, a line headed by the entry shows the natural chain unless it says otherwise.
UniProt Q8TEQ8: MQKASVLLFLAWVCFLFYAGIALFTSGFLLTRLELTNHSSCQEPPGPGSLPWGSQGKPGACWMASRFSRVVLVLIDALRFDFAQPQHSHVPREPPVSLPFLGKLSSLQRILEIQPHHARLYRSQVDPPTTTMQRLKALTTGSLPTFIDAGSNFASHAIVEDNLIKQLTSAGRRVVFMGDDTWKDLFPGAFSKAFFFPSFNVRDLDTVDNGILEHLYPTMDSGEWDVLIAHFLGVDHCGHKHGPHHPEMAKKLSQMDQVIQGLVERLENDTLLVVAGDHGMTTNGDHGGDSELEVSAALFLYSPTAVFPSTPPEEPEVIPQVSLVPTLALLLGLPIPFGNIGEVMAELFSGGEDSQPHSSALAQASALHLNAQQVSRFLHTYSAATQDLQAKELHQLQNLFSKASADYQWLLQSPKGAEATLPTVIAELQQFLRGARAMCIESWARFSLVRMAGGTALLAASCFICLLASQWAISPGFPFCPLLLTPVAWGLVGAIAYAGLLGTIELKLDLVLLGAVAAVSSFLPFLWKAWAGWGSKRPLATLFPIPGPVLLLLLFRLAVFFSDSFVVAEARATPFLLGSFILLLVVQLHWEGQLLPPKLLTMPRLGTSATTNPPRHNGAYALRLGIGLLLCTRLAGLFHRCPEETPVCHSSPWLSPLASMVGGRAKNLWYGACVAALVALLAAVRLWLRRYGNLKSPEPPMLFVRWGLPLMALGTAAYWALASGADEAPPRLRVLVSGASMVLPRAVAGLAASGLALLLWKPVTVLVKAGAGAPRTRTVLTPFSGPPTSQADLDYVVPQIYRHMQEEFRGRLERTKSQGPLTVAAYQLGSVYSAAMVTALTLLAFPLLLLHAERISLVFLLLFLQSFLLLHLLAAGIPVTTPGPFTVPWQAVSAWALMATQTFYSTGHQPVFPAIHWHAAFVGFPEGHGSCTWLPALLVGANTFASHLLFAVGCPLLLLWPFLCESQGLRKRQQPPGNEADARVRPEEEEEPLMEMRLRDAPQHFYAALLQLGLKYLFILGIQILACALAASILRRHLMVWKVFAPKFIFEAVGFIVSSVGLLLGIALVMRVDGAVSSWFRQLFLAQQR
UniProt Q8TCD6: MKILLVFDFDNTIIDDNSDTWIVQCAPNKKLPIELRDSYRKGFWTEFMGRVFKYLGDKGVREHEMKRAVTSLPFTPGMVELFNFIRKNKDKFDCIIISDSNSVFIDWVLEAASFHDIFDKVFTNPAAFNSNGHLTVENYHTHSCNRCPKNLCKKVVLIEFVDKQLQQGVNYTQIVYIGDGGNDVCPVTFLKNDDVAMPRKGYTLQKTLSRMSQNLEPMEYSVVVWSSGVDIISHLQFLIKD
UniProt Q8IXK0: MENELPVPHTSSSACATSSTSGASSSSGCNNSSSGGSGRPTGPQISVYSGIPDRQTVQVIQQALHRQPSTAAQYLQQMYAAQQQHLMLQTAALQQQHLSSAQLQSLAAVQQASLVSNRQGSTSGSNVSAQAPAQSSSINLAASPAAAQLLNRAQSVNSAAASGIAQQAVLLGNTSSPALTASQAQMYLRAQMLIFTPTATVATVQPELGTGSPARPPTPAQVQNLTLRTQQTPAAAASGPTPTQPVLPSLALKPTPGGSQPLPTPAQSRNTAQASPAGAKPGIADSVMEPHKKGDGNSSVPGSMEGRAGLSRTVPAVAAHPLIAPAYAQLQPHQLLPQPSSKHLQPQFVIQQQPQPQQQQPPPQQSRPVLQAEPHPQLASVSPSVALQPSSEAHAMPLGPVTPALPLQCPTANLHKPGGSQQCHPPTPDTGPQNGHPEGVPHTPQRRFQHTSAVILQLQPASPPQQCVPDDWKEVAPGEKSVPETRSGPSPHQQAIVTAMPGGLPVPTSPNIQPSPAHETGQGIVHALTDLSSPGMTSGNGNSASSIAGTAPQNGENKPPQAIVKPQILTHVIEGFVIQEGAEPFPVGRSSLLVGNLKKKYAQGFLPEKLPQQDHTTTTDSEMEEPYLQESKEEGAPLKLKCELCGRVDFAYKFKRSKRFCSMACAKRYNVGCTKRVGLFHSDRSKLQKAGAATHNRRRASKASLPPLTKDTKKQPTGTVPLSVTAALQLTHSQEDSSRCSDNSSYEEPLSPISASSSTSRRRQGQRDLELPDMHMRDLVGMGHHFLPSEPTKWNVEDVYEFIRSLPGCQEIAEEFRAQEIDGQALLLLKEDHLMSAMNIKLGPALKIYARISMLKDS
UniProt Q6P5Z2: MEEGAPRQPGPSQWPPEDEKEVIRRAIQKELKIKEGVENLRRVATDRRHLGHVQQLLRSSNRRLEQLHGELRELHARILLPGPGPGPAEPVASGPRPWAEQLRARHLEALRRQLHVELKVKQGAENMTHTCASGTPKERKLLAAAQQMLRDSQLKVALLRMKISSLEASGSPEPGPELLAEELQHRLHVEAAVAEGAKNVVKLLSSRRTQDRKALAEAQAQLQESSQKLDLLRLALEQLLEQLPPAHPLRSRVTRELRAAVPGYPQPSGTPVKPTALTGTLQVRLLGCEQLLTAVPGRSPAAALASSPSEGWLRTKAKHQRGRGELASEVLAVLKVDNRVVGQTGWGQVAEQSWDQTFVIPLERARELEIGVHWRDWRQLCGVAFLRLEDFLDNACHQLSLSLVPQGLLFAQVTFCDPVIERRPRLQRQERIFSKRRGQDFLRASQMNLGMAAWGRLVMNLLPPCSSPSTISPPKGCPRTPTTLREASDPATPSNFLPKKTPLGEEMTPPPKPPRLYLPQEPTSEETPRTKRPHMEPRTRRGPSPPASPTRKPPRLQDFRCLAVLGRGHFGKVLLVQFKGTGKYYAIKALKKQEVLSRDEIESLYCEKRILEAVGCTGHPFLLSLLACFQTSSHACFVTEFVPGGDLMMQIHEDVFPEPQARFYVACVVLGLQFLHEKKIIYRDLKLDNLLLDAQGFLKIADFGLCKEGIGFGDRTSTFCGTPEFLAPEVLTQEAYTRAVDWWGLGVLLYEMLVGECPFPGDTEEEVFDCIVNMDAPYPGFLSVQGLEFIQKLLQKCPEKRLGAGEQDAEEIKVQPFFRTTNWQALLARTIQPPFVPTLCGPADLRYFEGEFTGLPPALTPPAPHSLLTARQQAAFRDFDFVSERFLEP
UniProt Q9NUJ7: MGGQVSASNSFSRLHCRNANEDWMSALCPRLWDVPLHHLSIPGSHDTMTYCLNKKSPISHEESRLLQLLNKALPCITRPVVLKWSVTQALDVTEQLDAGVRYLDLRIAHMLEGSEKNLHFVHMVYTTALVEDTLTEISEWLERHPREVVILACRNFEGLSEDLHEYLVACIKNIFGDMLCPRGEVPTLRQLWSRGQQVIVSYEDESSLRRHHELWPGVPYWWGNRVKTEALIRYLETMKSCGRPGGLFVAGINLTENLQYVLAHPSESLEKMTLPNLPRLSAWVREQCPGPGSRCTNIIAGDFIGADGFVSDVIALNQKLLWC
UniProt O60346: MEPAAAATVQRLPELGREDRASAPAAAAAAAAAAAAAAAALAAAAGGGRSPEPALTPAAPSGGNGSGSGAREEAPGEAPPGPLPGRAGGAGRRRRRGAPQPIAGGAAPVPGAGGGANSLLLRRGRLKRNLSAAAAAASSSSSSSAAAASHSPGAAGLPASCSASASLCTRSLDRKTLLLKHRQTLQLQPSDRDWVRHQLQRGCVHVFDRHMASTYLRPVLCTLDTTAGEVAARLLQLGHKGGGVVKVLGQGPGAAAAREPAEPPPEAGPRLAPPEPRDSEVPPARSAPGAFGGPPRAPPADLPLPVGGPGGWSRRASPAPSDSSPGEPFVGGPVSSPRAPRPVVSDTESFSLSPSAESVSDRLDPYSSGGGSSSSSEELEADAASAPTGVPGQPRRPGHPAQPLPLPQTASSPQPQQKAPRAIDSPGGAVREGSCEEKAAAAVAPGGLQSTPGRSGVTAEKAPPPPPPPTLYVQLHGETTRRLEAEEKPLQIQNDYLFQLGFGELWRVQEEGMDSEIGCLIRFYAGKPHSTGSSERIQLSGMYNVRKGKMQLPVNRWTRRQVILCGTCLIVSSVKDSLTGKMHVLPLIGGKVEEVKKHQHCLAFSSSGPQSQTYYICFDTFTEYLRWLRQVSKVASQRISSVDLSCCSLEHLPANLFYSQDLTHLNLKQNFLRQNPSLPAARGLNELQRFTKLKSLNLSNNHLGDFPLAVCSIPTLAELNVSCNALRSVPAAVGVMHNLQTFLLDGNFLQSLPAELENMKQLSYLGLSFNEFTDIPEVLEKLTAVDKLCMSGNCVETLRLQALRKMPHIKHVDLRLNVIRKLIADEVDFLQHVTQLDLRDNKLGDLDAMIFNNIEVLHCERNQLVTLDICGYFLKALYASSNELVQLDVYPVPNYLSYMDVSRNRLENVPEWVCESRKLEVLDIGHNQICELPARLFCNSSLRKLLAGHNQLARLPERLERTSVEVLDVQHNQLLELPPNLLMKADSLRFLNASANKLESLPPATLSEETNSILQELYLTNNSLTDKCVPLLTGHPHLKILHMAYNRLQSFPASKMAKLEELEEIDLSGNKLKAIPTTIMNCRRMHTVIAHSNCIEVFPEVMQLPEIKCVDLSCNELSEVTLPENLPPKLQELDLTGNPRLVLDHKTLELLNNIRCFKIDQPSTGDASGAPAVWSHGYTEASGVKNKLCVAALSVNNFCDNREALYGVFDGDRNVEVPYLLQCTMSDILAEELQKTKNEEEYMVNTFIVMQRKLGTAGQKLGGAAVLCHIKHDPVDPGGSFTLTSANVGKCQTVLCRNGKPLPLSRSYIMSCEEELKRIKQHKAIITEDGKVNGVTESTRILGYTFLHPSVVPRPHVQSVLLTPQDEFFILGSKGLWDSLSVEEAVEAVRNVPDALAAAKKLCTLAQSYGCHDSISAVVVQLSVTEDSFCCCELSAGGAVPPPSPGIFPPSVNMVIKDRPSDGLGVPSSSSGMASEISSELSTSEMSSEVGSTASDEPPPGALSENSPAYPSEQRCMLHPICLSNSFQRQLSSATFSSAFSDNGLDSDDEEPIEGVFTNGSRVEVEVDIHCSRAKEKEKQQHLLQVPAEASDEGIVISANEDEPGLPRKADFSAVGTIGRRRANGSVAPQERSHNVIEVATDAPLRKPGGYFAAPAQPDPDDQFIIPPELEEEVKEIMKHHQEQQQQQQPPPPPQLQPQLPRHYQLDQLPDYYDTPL
UniProt P16885: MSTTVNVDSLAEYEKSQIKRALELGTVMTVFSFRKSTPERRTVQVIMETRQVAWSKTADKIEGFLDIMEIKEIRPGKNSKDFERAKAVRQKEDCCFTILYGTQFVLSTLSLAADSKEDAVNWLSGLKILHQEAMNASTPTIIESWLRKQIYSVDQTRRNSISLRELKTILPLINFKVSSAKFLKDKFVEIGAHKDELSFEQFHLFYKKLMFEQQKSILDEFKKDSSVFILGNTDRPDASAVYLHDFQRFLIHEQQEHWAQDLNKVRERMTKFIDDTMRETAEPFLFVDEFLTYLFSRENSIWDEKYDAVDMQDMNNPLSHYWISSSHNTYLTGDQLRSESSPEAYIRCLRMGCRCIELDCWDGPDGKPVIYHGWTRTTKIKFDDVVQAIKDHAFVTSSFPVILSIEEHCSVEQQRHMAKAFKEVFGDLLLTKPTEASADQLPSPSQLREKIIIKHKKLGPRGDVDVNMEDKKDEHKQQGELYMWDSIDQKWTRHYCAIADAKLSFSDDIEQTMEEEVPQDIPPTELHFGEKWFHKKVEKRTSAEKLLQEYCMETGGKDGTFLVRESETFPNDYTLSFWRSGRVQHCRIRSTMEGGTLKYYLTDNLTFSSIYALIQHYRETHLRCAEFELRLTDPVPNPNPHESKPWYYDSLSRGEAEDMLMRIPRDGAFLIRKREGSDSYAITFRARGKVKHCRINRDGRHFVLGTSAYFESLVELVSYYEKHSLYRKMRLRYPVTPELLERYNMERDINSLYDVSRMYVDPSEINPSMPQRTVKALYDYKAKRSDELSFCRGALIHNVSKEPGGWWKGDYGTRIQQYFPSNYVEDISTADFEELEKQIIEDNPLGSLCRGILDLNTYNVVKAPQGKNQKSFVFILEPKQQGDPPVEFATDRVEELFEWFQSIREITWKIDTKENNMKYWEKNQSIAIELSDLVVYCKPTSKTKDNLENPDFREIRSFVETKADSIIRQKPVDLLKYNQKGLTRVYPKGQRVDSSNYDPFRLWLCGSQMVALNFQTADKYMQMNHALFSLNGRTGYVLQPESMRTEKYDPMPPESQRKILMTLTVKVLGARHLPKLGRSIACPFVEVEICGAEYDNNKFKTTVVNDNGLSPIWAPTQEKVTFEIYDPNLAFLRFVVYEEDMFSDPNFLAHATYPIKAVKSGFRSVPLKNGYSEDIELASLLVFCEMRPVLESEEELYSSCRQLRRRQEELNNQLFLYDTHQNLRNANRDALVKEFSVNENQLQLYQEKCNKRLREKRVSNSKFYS

Legend:
Experiment in all cases: log2 fold change, soluble protein after heating vs DMSO (PISA); higher = thermal stabilisation; K562 cells, 10 uM, 30 min; active = over 0.2 and 3.5 SD of the protein, either way, in both replicates (recomputed)
[1] = compound: COC1=CC=C(C=C1)CN2C=CC3=C2C=C(C=C3)C(=O)NO
Method in brief: (§1)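 Quantification of soluble protein used TMTpro 16plex LC-MS/MS, with channel sums equalised. Samples were the supernatant after 21,000xg for 90 min of pooled aliquots from K562 cells (2×10^6 cells/mL) treated with 10 μM compound for 30 min, heated for 3 min over 48°C-58°C, and extracted in PBS with 0.5% NP-40 at 4°C. Values, from duplicates, describe thermal stability against control samples on a log2 fold-change scale.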

filanesib = compound: CON(C)C(=O)N1N=C(c2cc(F)ccc2F)S[C@@]1(CCCN)c1ccccc1 [filanesib]
Method in brief: as §1

zotarolimus = compound: CO[C@H]1C[C@@H]2CC[C@@H](C)[C@@](O)(O2)C(=O)C(=O)N2CCCC[C@H]2C(=O)O[C@H]([C@H](C)C[C@@H]2CC[C@H](n3cnnn3)[C@H](OC)C2)CC(=O)[C@H](C)/C=C(\C)[C@@H](O)[C@@H](OC)C(=O)[C@H](C)C[C@H](C)/C=C/C=C/C=C/1C [zotarolimus]
Method in brief: as §1

idasanutlin = compound: COc1cc(C(=O)O)ccc1NC(=O)[C@@H]1N[C@@H](CC(C)(C)C)[C@](C#N)(c2ccc(Cl)cc2F)[C@H]1c1cccc(Cl)c1F [idasanutlin]
Method in brief: as §1

alisertib = compound: COc1cc(Nc2ncc3c(n2)-c2ccc(Cl)cc2C(c2c(F)cccc2OC)=NC3)ccc1C(=O)O [alisertib]
Method in brief: as §1

[2] = compound: COc1cc2nc(-c3cc(F)ccc3O)nc(N[C@@H]3CNC[C@H]3C(C)(C)O)c2cc1OC
Method in brief: as §1

gefitinib = compound: COc1cc2ncnc(Nc3ccc(F)c(Cl)c3)c2cc1OCCCN1CCOCC1 [gefitinib]
Method in brief: as §1

[3] = compound: COc1cccc2cc(-c3nc([C@H]4CC[C@H](C(=O)O)CC4)n4ncnc(N)c34)[nH]c12
Method in brief: as §1

lapatinib = compound: CS(=O)(=O)CCNCc1ccc(-c2ccc3ncnc(Nc4ccc(OCc5cccc(F)c5)c(Cl)c4)c3c2)o1 [lapatinib]
Method in brief: as §1

pictilisib = compound: CS(=O)(=O)N1CCN(Cc2cc3nc(-c4cccc5[nH]ncc45)nc(N4CCOCC4)c3s2)CC1 [pictilisib]
Method in brief: as §1

[4] = compound: CS(=O)(=O)c1ccc(-c2cnc(N)c(C(=O)Nc3ccccc3)n2)cc1
Method in brief: as §1

crizotinib = compound: C[C@@H](Oc1cc(-c2cnn(C3CCNCC3)c2)cnc1N)c1c(Cl)ccc(F)c1Cl [crizotinib]
Method in brief: as §1

[5] = compound: C[C@H](C1=CC=C(C=C1)C(=O)NC2=C3C=CNC3=NC=C2)N
Method in brief: as §1

duvelisib = compound: C[C@H](Nc1ncnc2nc[nH]c12)c1cc2cccc(Cl)c2c(=O)n1-c1ccccc1 [duvelisib]
Method in brief: as §1

gandotinib = compound: Cc1cc(Nc2cc(CN3CCOCC3)c3nc(C)c(Cc4ccc(Cl)cc4F)n3n2)n[nH]1 [gandotinib]
Method in brief: as §1

tozasertib = compound: Cc1cc(Nc2cc(N3CCN(C)CC3)nc(Sc3ccc(NC(=O)C4CC4)cc3)n2)n[nH]1 [tozasertib]
Method in brief: as §1

[6] = compound: Cc1cc(SCc2sc(-c3ccc(C(F)(F)F)cc3)nc2C)ccc1OCC(=O)O
Method in brief: as §1

doramapimod = compound: Cc1ccc(-n2nc(C(C)(C)C)cc2NC(=O)Nc2ccc(OCCN3CCOCC3)c3ccccc23)cc1 [doramapimod]
Method in brief: as §1

ispinesib = compound: Cc1ccc(C(=O)N(CCCN)[C@@H](c2nc3cc(Cl)ccc3c(=O)n2Cc2ccccc2)C(C)C)cc1 [ispinesib]
Method in brief: as §1

[7] = compound: C[C@@H]1COCCN1C2=NC(=NC(=C2)C3(CC3)S(=O)(=O)C)C4=C5C=CNC5=CC=C4
Method in brief: as §1

Measured: log2 fold change

PLA2G4B isoform 6 (UniProt P0C869)
inactive: [1] 0.126 | filanesib 0.013 | zotarolimus 0.032 | idasanutlin -0.134 | alisertib 0.083 | [2] -0.175 | gefitinib 0.196 | [3] -0.057 | lapatinib 0.007 | pictilisib 0.024 | [4] -0.009 | crizotinib -0.092 | [5] -0.032 | duvelisib 0.165 | gandotinib -0.045 | tozasertib -0.293 | [6] -0.121 | doramapimod 0.166 | ispinesib -0.05

PIGO (UniProt Q8TEQ8)
inactive: [1] -0.035 | zotarolimus 0.017 | alisertib -0.056 | gefitinib -0.036 | [3] 0.003 | crizotinib -0.01 | [7] 0.031 | [5] 0.058 | tozasertib 0.013 | doramapimod 0.266

PLD6 (UniProt Q8N2A8)
inactive: [1] 0.129 | filanesib 0.133 | [2] 0.125 | lapatinib -0.001 | [4] -0.076 | crizotinib -0.092 | [7] -0.151 | doramapimod 0.071

PHOSPHO2 (UniProt Q8TCD6)
inactive: [1] -0.028 | zotarolimus 0.089 | idasanutlin -0.059 | alisertib -0.123 | [3] -0.084 | crizotinib 0.058 | [5] -0.23 | duvelisib 0.145 | tozasertib 0.371 | [6] 0.089 | doramapimod 0.044 | ispinesib -0.14

PI4K2B (UniProt Q8TCG2)
inactive: [1] -0.035 | filanesib -0.059 | zotarolimus -0.014 | idasanutlin -0.034 | alisertib -0.059 | gefitinib 0.4 | [3] -0.054 | pictilisib 0.051 | [4] 0.06 | crizotinib -0.184 | [5] 0.118 | gandotinib -0.045 | [6] -0.016 | doramapimod 0.01
active: ispinesib -0.355

PFN1 (UniProt I3L3D5)
inactive: [1] -0.527 | filanesib 0.169 | zotarolimus 0.001 | idasanutlin 0.006 | alisertib 0.274 | [2] 0.194 | [3] 0.118 | lapatinib -0.215 | pictilisib 0.511 | [4] 0.107 | crizotinib 0.054 | [7] -0.172 | [5] 0.164 | gandotinib -0.013 | tozasertib -0.055 | doramapimod -0.135 | ispinesib -0.361

PHF19 isoform 2 (UniProt Q5T6S3)
inactive: [1] -0.023 | filanesib 0.084 | alisertib 0.161 | [2] 0.133 | gefitinib -0.113 | [3] -0.265 | lapatinib 0.055 | pictilisib -0.069 | [4] -0.117 | crizotinib -0.09 | [7] 0.019 | duvelisib 0.167 | gandotinib 0.09 | tozasertib 0.039 | [6] 0.096 | doramapimod -0.099 | ispinesib -0.031

PHC2 isoform 5 (UniProt Q8IXK0)
inactive: [1] -0.166 | filanesib 0.114 | zotarolimus 0.02 | alisertib -0.062 | [3] 0.261 | [4] -0.004 | crizotinib 0.088 | [7] -0.041 | [5] -0.017 | duvelisib -0.052 | [6] -0.023 | doramapimod 0.133 | ispinesib -0.113

PHC3 isoform 7 (UniProt Q8NDX5)
inactive: [1] 0.287 | filanesib -0.029 | zotarolimus 0.001 | alisertib -0.121 | [2] -0.03 | gefitinib -0.153 | [3] 0.203 | lapatinib 0.05 | [4] -0.068 | crizotinib -0.194 | [7] 0.317 | [5] 0.073 | doramapimod 0.131

PIGB (UniProt Q92521)
inactive: [1] 0 | filanesib -0.032 | zotarolimus 0.032 | alisertib -0.001 | [2] -0.108 | [3] 0.063 | lapatinib -0.012 | pictilisib 0.165 | [4] -0.012 | crizotinib -0.079 | [7] -0.058 | [5] 0.002 | duvelisib -0.132 | gandotinib -0.149 | tozasertib -0.043 | [6] 0.098 | doramapimod 0.002 | ispinesib -0.11

PKN2 (UniProt Q16513)
inactive: [1] 0.001 | filanesib -0.085 | zotarolimus 0.01 | idasanutlin -0.016 | [2] -0.069 | gefitinib 0.004 | [3] 0.034 | lapatinib -0.013 | pictilisib 0 | [4] 0.025 | crizotinib -0.191 | [7] 0.067 | [5] -0.057 | gandotinib -0.058 | [6] 0.133 | doramapimod 0.035 | ispinesib -0.028

PICK1 (UniProt Q9NRD5)
inactive: filanesib 0.104 | alisertib -0.549 | gefitinib 0.199 | [3] -0.203 | [4] 0.089 | [7] -0.073 | ispinesib 0.001

PIBF1 (UniProt Q8WXW3)
inactive: alisertib -0.078 | [3] -0.251 | duvelisib -0.456 | tozasertib 0.198 | [6] 0.293

PKN3 (UniProt Q6P5Z2)
inactive: filanesib -0.038 | [4] 0.38

PKMYT1 (UniProt Q99640)
inactive: filanesib 0.057 | [4] 0.036 | [7] 0.216 | ispinesib -0.603

PLCXD1 (UniProt Q9NUJ7)
inactive: ispinesib -0.145

PHLPP1 (UniProt O60346)
inactive: zotarolimus -0.059 | [7] -0.142 | [5] 0.082 | duvelisib -0.099 | tozasertib -0.092 | [6] 0

Two successive entries from above, quoted:
PKN3 (UniProt Q6P5Z2)
inactive: filanesib -0.038 | [4] 0.38

PKMYT1 (UniProt Q99640)
inactive: filanesib 0.057 | [4] 0.036 | [7] 0.216 | ispinesib -0.603

Continuation:

PLCG2 (UniProt P16885)
inactive: idasanutlin -0.074
